In article PMC12135372 one finds binding data, which are given here for 3 molecules.

For experiment [1], the target named is T1, Danio rerio DDX1, full length, His6-MBP fusion (subunit of Dr-tRNA-LC-FL) (Danio rerio) (UniProt F1R2L8).
T1 sequence: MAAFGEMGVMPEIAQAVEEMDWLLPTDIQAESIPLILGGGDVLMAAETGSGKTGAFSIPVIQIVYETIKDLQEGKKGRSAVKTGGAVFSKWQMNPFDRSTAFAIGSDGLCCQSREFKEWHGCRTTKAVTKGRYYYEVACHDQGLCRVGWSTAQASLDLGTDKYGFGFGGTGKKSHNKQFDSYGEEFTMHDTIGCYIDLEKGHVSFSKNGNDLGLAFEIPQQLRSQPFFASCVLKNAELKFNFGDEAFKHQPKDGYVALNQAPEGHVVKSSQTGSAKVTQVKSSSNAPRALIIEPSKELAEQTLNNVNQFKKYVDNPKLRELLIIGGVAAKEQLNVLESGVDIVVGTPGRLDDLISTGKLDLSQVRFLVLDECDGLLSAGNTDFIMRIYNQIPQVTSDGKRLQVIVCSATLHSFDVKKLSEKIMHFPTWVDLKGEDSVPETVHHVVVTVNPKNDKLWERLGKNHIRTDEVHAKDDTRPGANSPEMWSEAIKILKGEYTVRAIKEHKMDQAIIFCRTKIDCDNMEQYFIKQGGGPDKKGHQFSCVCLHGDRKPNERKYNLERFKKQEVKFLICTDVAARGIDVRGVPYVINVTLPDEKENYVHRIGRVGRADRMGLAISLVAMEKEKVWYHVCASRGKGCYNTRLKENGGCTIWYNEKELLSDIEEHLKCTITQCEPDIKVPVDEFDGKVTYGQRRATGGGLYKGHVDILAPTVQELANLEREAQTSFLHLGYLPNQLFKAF
Description: co-expression and co-purification (Ni affinity chromatography, then gel filtration); all five subunits co-expressed in Sf9 cells; complex captured on a HisTrap column via His6-MBP-DDX1, tag removed with TEV, Superose 6 Increase gel filtration; 25 mM Hepes pH 7.5, 150 mM NaCl, 5% glycerol. For orientation: Size exclusion chromatography separates by hydrodynamic size, large species first.

Experiment [2] deals with T2, Danio rerio His6-RTCB (subunit of Dr-tRNA-LC-TR) (Danio rerio) (UniProt Q6NZS4).
T2 sequence: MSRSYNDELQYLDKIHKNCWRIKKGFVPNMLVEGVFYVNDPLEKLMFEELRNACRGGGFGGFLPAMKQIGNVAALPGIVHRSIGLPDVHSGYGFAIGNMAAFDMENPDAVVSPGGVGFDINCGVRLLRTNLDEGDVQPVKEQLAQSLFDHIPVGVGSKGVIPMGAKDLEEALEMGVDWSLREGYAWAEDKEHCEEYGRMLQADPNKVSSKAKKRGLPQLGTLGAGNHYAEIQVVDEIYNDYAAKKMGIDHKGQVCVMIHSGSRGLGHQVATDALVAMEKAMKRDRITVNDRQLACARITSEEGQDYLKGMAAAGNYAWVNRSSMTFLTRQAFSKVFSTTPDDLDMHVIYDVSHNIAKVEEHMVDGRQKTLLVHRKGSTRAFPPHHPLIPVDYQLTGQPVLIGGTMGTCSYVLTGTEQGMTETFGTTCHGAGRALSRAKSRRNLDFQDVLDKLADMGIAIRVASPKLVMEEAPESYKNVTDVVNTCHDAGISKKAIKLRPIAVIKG
Description: cryo-EM structure; Dr-tRNA-LC-TR at 0.95 mg/ml with 2 mM MnCl2, 2 mM GTP and twofold molar excess of tRNAIle (RNA not seen in the map); 3.3 Å reconstruction, atomic model built; both purified.

Experiment [3] deals with T3, Danio rerio CGI99 (subunit of Dr-tRNA-LC, FL and TR forms) (Danio rerio) (UniProt Q7ZUH1).
T3 sequence: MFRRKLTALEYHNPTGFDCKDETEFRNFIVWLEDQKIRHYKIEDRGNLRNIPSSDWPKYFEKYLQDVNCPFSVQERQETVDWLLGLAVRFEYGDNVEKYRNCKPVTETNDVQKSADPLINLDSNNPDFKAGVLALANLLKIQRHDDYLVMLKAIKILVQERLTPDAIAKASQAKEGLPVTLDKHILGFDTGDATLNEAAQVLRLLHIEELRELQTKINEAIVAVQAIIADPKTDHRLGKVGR
The description is as above.

No constants are given. Whether binding was seen depends on the method and setting. Some entries that bind do so weakly or less than the wild type. For some assays here: Sequences can lack the tags named with a protein.

B1: Danio rerio RTCB, untagged (subunit of Dr-tRNA-LC-FL) (enzyme, UniProt Q6NZS4 1-505)
chain: T2 sequence
As to B1, the binding result in experiment [1] was “binds”.

B2: Danio rerio CGI99 (subunit of Dr-tRNA-LC, FL and TR forms) (protein, UniProt Q7ZUH1 1-242)
chain: T3 sequence
For the molecule B2, the binding entry in experiment [1] and in experiment [2] was “binds” throughout.

B3: Danio rerio DDX1 C terminus, residues 693-740 (subunit of Dr-tRNA-LC-TR) (domain or fragment, UniProt F1R2L8 693-740)
chain: RRATGGGLYKGHVDILAPTVQELANLEREAQTSFLHLGYLPNQLFKAF
In the case of B3, the binding entry in experiment [2] and in experiment [3] was “binds” in each case.
